# From patent publication US20190111080A1 (PRECIGEN, published 2019)
# Amino acid sequences for entries named in this document (tags omitted). Residues count along the entry.
# UniProt P20138, 18-259: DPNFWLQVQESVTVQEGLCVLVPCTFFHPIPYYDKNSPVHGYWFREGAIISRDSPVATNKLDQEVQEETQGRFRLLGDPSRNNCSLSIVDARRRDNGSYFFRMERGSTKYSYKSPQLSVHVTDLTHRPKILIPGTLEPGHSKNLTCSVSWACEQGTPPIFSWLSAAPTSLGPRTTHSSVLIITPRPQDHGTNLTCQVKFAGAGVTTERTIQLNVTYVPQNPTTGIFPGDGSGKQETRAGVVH
# Key:
# [1] = target: T1, recombinant CD33/Fc protein (UniProt P20138 18-259); experiment: flow cytometry, CAR-nucleofected T cells stained with recombinant CD33/Fc; donor #1
# T1 construct: Staining reagent for flow cytometry; not shown: Fc part not described
# Method: (§1) Briefly, CD33-specific CAR vectors were introduced into PBMC via electroporation, using a Sleeping Beauty-based transposon system to mediate genomic integration of the transposons. On day 0, 20 million PBMC were suspended in 100 μL of Amaxa human T cell Nucleofector solution (Cat. no. VPA-1002; Lonza, Basel, Switzerland) mixed with 15 μg of CAR transposon and 5 μg of SB transposase and electroporated. The following day (day 1) cells count and viability were measured followed by flow cytometry to quantify CAR expression. CAR-T cells were stimulated with either γ-irradiated (100 Gy) or mitomycin C treated AaPCs at a 1:1 ratio. The AaPC cells used were K562 cell line expressing CD33 antigen. CD33-CAR-T cells were expanded ex vivo by once weekly stimulation with the AaPCs at a 1:1 ratio. Cultures were maintained in IL-2 (50 IU/ml) and/or IL-21 (30 ng/ml). CD33-specific CAR expression was measured using recombinant CD33/Fc protein staining as detected by multi-parameter flow cytometry.
# [2] = target: T1, recombinant CD33/Fc protein; experiment: flow cytometry, CAR-nucleofected T cells stained with recombinant CD33/Fc; donor #2
# Method: as §1
Binder,% CD3+ CAR+ [1] [%],% CD3+ CAR+ [2] [%]
"CD33-specific chimeric antigen receptor with CD8 2X spacer (receptor, Expressed on human T cells; also called CD33 CAR CD8-2X) DIQMTQSPSSLSASVGDRVTITCRASESVDNYGISFMNWFQQKPGKAPKLLIYAASNQGSGVPSRFSGSGSGTDFTLTISSLQPDDFATYYCQQSKEVPWTFGQGTKVEIKGGGGSGGGGSGGGGSQVQLVQSGAEVKKPGSSVKVSCKASGYTFTDYNMHWVRQAPGQGLEWIGYIYPYNGGTGYNQKFKSKATITADESTNTAYMELSSLRSEDTAVYYCARGRPAMDYWGQGTLVTVSSKPTTTPAPRPPTPAPTIASQPLSLRPEASRPAAGGAVHTRGLDFASDKPTTTPAPRPPTPAPTIASQPLSLRPEACRPAAGGAVHTRGLDFACDIYIWAPLAGTCGVLLLSLVITLYCNHRNKRGRKKLLYIFKQPFMRPVQTTQEEDGCSCRFPEEEEGGCELRVKFSRSADAPAYQQGQNQLYNELNLGRREEYDVLDKRRGRDPEMGGKPRRKNPQEGLYNELQKDKMAEAYSEIGMKGERRRGKGHDGLYQGLSTATKDTYDALHMQALPPR",29.3,82.9
"CD33-specific chimeric antigen receptor with CD8 3X spacer (receptor, Expressed on human T cells; also called CD33 CAR CD8-3X) DIQMTQSPSSLSASVGDRVTITCRASESVDNYGISFMNWFQQKPGKAPKLLIYAASNQGSGVPSRFSGSGSGTDFTLTISSLQPDDFATYYCQQSKEVPWTFGQGTKVEIKGGGGSGGGGSGGGGSQVQLVQSGAEVKKPGSSVKVSCKASGYTFTDYNMHWVRQAPGQGLEWIGYIYPYNGGTGYNQKFKSKATITADESTNTAYMELSSLRSEDTAVYYCARGRPAMDYWGQGTLVTVSSKPTTTPAPRPPTPAPTIASQPLSLRPEASRPAAGGAVHTRGLDFASDKPTTTPAPRPPTPAPTIASQPLSLRPEASRPAAGGAVHTRGLDFASDKPTTTPAPRPPTPAPTIASQPLSLRPEACRPAAGGAVHTRGLDFACDIYIWAPLAGTCGVLLLSLVITLYCNHRNKRGRKKLLYIFKQPFMRPVQTTQEEDGCSCRFPEEEEGGCELRVKFSRSADAPAYQQGQNQLYNELNLGRREEYDVLDKRRGRDPEMGGKPRRKNPQEGLYNELQKDKMAEAYSEIGMKGERRRGKGHDGLYQGLSTATKDTYDALHMQALPPR",63.5,80
"CD33-specific chimeric antigen receptor with CD8 3X V2 spacer (receptor, Nucleofected into human T cells; also called CD33 CAR CD8-3X V2; CD8-3×v2) DIQMTQSPSSLSASVGDRVTITCRASESVDNYGISFMNWFQQKPGKAPKLLIYAASNQGSGVPSRFSGSGSGTDFTLTISSLQPDDFATYYCQQSKEVPWTFGQGTKVEIKGGGGSGGGGSGGGGSQVQLVQSGAEVKKPGSSVKVSCKASGYTFTDYNMHWVRQAPGQGLEWIGYIYPYNGGTGYNQKFKSKATITADESTNTAYMELSSLRSEDTAVYYCARGRPAMDYWGQGTLVTVSSKPTTTPAPRPPTPAPTIASQPLSLRPEACRPAAGGAVHTRGLDFACDKPTTTPAPRPPTPAPTIASQPLSLRPEASRPAAGGAVHTRGLDFASDKPTTTPAPRPPTPAPTIASQPLSLRPEASRPAAGGAVHTRGLDFASDIYIWAPLAGTCGVLLLSLVITLYCNHRNKRGRKKLLYIFKQPFMRPVQTTQEEDGCSCRFPEEEEGGCELRVKFSRSADAPAYQQGQNQLYNELNLGRREEYDVLDKRRGRDPEMGGKPRRKNPQEGLYNELQKDKMAEAYSEIGMKGERRRGKGHDGLYQGLSTATKDTYDALHMQALPPR",19.5,9.03

# More lines, now with the values ahead:
% CD3+ CAR+ [1] [%],% CD3+ CAR+ [2] [%],Binder
50.4,74.3,"CD33-specific chimeric antigen receptor with CD8α hinge (CD8 1X) spacer (receptor, also called CD33 CAR CD8-1X) DIQMTQSPSSLSASVGDRVTITCRASESVDNYGISFMNWFQQKPGKAPKLLIYAASNQGSGVPSRFSGSGSGTDFTLTISSLQPDDFATYYCQQSKEVPWTFGQGTKVEIKGGGGSGGGGSGGGGSQVQLVQSGAEVKKPGSSVKVSCKASGYTFTDYNMHWVRQAPGQGLEWIGYIYPYNGGTGYNQKFKSKATITADESTNTAYMELSSLRSEDTAVYYCARGRPAMDYWGQGTLVTVSSKPTTTPAPRPPTPAPTIASQPLSLRPEACRPAAGGAVHTRGLDFACDIYIWAPLAGTCGVLLLSLVITLYCNHRNKRGRKKLLYIFKQPFMRPVQTTQEEDGCSCRFPEEEEGGCELRVKFSRSADAPAYQQGQNQLYNELNLGRREEYDVLDKRRGRDPEMGGKPRRKNPQEGLYNELQKDKMAEAYSEIGMKGERRRGKGHDGLYQGLSTATKDTYDALHMQALPPR"
63.6,80.7,"CD33-specific chimeric antigen receptor with CD8 4X spacer (receptor, Expressed on human T cells; also called CD33 CAR CD8-4X) DIQMTQSPSSLSASVGDRVTITCRASESVDNYGISFMNWFQQKPGKAPKLLIYAASNQGSGVPSRFSGSGSGTDFTLTISSLQPDDFATYYCQQSKEVPWTFGQGTKVEIKGGGGSGGGGSGGGGSQVQLVQSGAEVKKPGSSVKVSCKASGYTFTDYNMHWVRQAPGQGLEWIGYIYPYNGGTGYNQKFKSKATITADESTNTAYMELSSLRSEDTAVYYCARGRPAMDYWGQGTLVTVSSKPTTTPAPRPPTPAPTIASQPLSLRPEASRPAAGGAVHTRGLDFASDKPTTTPAPRPPTPAPTIASQPLSLRPEASRPAAGGAVHTRGLDFASDKPTTTPAPRPPTPAPTIASQPLSLRPEASRPAAGGAVHTRGLDFASDKPTTTPAPRPPTPAPTIASQPLSLRPEACRPAAGGAVHTRGLDFACDIYIWAPLAGTCGVLLLSLVITLYCNHRNKRGRKKLLYIFKQPFMRPVQTTQEEDGCSCRFPEEEEGGCELRVKFSRSADAPAYQQGQNQLYNELNLGRREEYDVLDKRRGRDPEMGGKPRRKNPQEGLYNELQKDKMAEAYSEIGMKGERRRGKGHDGLYQGLSTATKDTYDALHMQALPPR"
